{
  "source": "paper PMC10352133",
  "binders": {"B1": {"name": "isoform b of human synaptogyrin 1, O43759-2 1-191 (protein)", "chain": "MEGGAYGAGKAGGAFDPYTLVRQPHTILRVVSWLFSIVVFGSIVNEGYLNSASEGEEFCIYNRNPNACSYGVAVGVLAFLTCLLYLALDVYFPQISSVKDRKKAVLSDIGVSAFWAFLWFVGFCYLANQWQVSKPKDNPLNEGTDAARAAIAFSFFSIFTWSLTAALAVRRFKDLSFQEEYSTLFPASAQP"}},
  "target": "T1, isoform b of human synaptogyrin 1 (human), O43759",
  "T1 chain": "B1 chain",
  "experiment": "NMR transverse relaxation (1H spin-spin echo, T2 of amide protons); 0.1-0.3 mM synaptogyrin in 20 mM sodium phosphate, pH 8.0, 150 mM NaCl, 1 mM TCEP, 0.1% UDM (or 0.005% NG310 or 0.03% DDM), 40 °C; molecular weight of the protein/detergent assembly estimated from T2; both purified",
  "conditions": "remark: other sources report otherwise",
  "note": "These are yes or no findings as the source states them, for the method shown.",
  "data": [
    {"binder": "B1", "values": [
      {"measurement": "binding", "result": "no binding (tested: 0.1-0.3 mM)"}
    ]}
  ]
}
